Experimental data reported in the supplement of paper PMC10849652.
This is one part of the list.

By UniProt entry, the sequences of proteins in these tests, tags left out. Where a name states a change or a piece, a line headed by the entry shows the natural chain unless it says otherwise.
UniProt Q9BVS4: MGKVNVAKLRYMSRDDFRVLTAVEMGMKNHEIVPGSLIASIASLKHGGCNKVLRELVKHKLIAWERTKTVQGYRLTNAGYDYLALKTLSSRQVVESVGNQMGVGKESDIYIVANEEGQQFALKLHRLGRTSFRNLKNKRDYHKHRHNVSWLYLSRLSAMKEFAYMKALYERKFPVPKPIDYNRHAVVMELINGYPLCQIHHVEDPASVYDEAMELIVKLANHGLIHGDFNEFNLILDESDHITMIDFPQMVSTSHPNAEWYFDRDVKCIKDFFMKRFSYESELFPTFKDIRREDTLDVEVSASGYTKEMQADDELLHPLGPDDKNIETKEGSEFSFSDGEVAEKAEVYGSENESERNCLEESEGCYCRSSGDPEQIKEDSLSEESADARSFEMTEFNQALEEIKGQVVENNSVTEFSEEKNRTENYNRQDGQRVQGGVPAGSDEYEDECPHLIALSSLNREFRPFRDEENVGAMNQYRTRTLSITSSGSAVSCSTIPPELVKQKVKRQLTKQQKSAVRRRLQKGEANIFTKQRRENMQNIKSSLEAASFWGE
UniProt Q8IXI1, whole entry, looked up: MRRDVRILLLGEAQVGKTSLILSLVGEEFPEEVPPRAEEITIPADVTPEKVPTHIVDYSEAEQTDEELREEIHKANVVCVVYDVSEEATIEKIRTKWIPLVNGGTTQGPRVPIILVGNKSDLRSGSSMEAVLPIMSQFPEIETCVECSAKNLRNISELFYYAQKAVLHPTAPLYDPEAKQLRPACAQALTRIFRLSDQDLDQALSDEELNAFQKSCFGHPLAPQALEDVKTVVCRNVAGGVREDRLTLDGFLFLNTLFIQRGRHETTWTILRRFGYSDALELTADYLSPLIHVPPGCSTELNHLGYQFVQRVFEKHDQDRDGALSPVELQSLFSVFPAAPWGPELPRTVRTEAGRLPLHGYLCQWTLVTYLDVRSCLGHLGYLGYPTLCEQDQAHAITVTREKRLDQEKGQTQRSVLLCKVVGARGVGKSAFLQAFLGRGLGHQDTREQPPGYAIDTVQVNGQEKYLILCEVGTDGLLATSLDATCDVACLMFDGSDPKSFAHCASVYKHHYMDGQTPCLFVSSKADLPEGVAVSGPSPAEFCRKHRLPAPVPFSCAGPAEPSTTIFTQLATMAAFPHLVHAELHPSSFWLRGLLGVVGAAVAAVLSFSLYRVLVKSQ
UniProt Q969K3: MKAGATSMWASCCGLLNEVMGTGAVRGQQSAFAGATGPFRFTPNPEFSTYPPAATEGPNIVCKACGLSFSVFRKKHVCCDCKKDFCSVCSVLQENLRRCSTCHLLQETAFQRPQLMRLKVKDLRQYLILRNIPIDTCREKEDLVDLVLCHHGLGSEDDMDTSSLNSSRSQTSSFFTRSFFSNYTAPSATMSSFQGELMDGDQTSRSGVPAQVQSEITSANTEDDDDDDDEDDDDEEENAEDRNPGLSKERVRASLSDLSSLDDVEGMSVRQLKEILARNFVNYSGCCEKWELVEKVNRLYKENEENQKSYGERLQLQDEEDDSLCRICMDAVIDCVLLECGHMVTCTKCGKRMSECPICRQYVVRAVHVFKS
UniProt Q9NPQ8: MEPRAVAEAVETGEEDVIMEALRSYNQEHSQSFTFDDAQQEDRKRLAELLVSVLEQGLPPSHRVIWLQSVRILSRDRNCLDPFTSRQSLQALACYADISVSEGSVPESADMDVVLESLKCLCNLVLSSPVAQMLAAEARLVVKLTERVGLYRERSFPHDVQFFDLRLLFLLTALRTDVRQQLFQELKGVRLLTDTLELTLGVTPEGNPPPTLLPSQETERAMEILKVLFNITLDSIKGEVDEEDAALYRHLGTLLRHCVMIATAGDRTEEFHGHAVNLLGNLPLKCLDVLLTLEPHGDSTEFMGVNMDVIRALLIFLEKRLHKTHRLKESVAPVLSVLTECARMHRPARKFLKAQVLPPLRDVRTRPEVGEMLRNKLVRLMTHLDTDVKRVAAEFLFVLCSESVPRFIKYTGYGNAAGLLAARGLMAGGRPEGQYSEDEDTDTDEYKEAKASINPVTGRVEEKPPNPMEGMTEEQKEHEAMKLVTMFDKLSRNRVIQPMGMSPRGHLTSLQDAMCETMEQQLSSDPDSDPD
UniProt P49247: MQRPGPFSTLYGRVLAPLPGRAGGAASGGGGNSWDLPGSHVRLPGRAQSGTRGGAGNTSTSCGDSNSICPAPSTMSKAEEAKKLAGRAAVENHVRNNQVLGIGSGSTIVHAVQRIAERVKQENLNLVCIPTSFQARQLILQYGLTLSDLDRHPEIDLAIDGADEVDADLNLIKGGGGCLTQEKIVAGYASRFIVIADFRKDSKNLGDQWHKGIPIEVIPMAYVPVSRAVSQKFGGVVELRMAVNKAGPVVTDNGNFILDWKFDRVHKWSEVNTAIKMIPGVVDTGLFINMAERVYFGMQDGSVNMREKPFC
UniProt Q9UBF6, whole entry, looked up: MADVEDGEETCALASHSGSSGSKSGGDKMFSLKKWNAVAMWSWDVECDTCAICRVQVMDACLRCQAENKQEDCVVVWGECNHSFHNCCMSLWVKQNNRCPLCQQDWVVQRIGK
UniProt Q8IXI2: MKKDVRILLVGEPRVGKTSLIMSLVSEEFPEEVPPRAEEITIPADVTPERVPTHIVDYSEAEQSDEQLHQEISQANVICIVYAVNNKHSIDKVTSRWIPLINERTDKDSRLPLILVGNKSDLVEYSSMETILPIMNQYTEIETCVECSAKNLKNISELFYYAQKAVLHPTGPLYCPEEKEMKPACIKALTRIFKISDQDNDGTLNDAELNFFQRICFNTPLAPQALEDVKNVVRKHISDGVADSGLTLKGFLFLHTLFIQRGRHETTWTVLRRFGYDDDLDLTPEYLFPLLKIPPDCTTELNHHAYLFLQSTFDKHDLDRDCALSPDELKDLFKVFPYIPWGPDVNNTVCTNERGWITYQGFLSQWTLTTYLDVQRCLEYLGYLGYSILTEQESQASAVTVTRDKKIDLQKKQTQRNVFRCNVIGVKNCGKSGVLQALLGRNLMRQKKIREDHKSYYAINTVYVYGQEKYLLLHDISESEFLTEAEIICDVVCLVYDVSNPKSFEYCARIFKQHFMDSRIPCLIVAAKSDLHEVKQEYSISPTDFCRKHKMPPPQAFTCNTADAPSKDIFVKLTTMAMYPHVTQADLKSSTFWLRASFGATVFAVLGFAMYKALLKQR
UniProt Q96NA2: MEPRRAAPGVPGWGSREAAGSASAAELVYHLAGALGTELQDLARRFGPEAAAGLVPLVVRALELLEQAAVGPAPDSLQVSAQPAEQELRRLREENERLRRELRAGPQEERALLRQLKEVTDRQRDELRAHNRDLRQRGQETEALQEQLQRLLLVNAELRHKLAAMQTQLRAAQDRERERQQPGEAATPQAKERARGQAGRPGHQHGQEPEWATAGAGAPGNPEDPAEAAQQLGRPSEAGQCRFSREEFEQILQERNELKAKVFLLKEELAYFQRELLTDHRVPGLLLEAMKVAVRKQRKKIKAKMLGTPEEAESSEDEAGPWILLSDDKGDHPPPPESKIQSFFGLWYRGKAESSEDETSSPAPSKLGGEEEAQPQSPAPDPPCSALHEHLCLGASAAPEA
UniProt Q13546: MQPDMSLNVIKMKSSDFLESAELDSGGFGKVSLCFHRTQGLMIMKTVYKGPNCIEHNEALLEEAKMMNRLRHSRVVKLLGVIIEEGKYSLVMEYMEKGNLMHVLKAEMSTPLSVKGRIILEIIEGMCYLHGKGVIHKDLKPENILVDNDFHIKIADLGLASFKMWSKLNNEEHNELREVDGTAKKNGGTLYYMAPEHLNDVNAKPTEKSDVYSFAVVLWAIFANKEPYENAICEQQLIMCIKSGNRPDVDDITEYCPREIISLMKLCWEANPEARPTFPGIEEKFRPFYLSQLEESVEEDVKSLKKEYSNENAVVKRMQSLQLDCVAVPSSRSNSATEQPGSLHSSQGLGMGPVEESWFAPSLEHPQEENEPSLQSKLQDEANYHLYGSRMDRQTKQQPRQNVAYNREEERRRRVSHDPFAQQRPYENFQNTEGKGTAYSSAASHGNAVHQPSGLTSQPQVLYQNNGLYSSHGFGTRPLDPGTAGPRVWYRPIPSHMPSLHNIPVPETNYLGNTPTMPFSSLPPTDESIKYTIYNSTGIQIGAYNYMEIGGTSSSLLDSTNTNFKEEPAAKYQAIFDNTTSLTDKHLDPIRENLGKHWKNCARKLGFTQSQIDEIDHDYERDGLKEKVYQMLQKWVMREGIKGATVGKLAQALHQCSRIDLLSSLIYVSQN
UniProt Q8TDP1: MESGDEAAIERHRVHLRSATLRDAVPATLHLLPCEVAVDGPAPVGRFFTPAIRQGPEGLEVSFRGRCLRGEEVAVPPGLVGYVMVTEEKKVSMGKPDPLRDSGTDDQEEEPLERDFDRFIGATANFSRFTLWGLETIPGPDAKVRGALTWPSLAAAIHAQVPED
UniProt Q9BQY4: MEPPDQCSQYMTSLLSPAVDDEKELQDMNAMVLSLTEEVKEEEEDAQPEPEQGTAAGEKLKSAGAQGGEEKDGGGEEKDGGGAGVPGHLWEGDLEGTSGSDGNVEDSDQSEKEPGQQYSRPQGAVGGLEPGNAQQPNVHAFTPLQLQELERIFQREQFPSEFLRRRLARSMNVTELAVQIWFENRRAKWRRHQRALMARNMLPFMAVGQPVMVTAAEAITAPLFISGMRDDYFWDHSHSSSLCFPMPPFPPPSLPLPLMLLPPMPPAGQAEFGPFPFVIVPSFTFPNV

Tests used:
Assay in all cases: log2 fold change, soluble protein after heating vs DMSO (PISA); higher = thermal stabilisation; K562 lysate, 10 uM; active = over 0.2 and 3.5 SD of the protein, either way, in both replicates (recomputed)
lapatinib = compound: CS(=O)(=O)CCNCc1ccc(-c2ccc3ncnc(Nc4ccc(OCc5cccc(F)c5)c(Cl)c4)c3c2)o1 [lapatinib]
Procedure, shortened: (§1)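 Log-two fold change in thermal stability relative to solvent controls is reported from duplicates. For each sample, crude K562 extract from dounce-homogenised pellets in PBS pH 7.4 with 1 mM MgCl2, at 1 mg/mL protein, was treated with 10 μM compound for 30 min. Aliquots heated for 3 min across 48°C-58°C were pooled, brought to 0.5% NP-40 at 4°C and cleared at 21,000xg for 90 min. The supernatant was quantified by TMTpro 16plex LC-MS/MS with channel sums equalised.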

pictilisib = compound: CS(=O)(=O)N1CCN(Cc2cc3nc(-c4cccc5[nH]ncc45)nc(N4CCOCC4)c3s2)CC1 [pictilisib]
Procedure, shortened: as §1

crizotinib = compound: C[C@@H](Oc1cc(-c2cnn(C3CCNCC3)c2)cnc1N)c1c(Cl)ccc(F)c1Cl [crizotinib]
Procedure, shortened: as §1

[1] = compound: C[C@H](C1=CC=C(C=C1)C(=O)NC2=C3C=CNC3=NC=C2)N
Procedure, shortened: as §1

duvelisib = compound: C[C@H](Nc1ncnc2nc[nH]c12)c1cc2cccc(Cl)c2c(=O)n1-c1ccccc1 [duvelisib]
Procedure, shortened: as §1

gandotinib = compound: Cc1cc(Nc2cc(CN3CCOCC3)c3nc(C)c(Cc4ccc(Cl)cc4F)n3n2)n[nH]1 [gandotinib]
Procedure, shortened: as §1

tozasertib = compound: Cc1cc(Nc2cc(N3CCN(C)CC3)nc(Sc3ccc(NC(=O)C4CC4)cc3)n2)n[nH]1 [tozasertib]
Procedure, shortened: as §1

doramapimod = compound: Cc1ccc(-n2nc(C(C)(C)C)cc2NC(=O)Nc2ccc(OCCN3CCOCC3)c3ccccc23)cc1 [doramapimod]
Procedure, shortened: as §1

bafetinib = compound: Cc1ccc(NC(=O)c2ccc(CN3CC[C@H](N(C)C)C3)c(C(F)(F)F)c2)cc1Nc1nccc(-c2cncnc2)n1 [bafetinib]
Procedure, shortened: as §1

[2] = compound: Cc1cccc(CC(=O)N2CCc3c2ccc(-c2cn(C)c4ncnc(N)c24)c3F)n1
Procedure, shortened: as §1

nilotinib = compound: Cc1cn(-c2cc(NC(=O)c3ccc(C)c(Nc4nccc(-c5cccnc5)n4)c3)cc(C(F)(F)F)c2)cn1 [nilotinib]
Procedure, shortened: as §1

[3] = compound: Cc1nc(Nc2n[nH]c3c2CN(C(=O)N[C@H](CN(C)C)c2ccccc2)C3(C)C)c2sccc2n1
Procedure, shortened: as §1

dasatinib = compound: Cc1nc(Nc2ncc(C(=O)Nc3c(C)cccc3Cl)s2)cc(N2CCN(CCO)CC2)n1 [dasatinib]
Procedure, shortened: as §1

[4] = compound: Cc1ncc(-c2ccnc(Nc3ccc(S(C)(=O)=O)cc3)n2)n1C(C)C
Procedure, shortened: as §1

[5] = compound: Cn1cc(-c2ccc3c(c2)CCN3C(=O)Cc2cccc(C(F)(F)F)c2)c2c(N)ncnc21
Procedure, shortened: as §1

quisinostat = compound: Cn1cc(CNCC2CCN(c3ncc(C(=O)NO)cn3)CC2)c2ccccc21 [quisinostat]
Procedure, shortened: as §1

tipifarnib = compound: Cn1cncc1[C@@](N)(c1ccc(Cl)cc1)c1ccc2c(c1)c(-c1cccc(Cl)c1)cc(=O)n2C [tipifarnib]
Procedure, shortened: as §1

[6] = compound: NC(=O)Nc1cc(-c2cccc(F)c2)sc1C(=O)N[C@H]1CCCNC1
Procedure, shortened: as §1

[7] = compound: NC(=O)c1cnc(N[C@@H]2CCCC[C@@H]2N)nc1Nc1cccc(-n2nccn2)c1
Procedure, shortened: as §1

[8] = compound: NC1(c2ccc(-c3nc4ccn5c(=O)[nH]nc5c4cc3-c3ccccc3)cc2)CCC1
Procedure, shortened: as §1

Measured: log2 fold change

RIOK2 (UniProt Q9BVS4)
active: gandotinib 0.829 | [4] 0.537
inactive: lapatinib -0.032 | pictilisib 0.269 | crizotinib 0.047 | [1] -0.028 | duvelisib 0.016 | tozasertib -0.011 | doramapimod -0.028 | bafetinib 0.093 | [2] -0.012 | nilotinib 0.002 | [3] 0.034 | dasatinib 0.01 | [5] -0.023 | quisinostat -0.054 | tipifarnib -0.013 | [6] 0.05 | [7] 0.198 | [8] -0.03

RPL27A (UniProt P46776)
inactive: lapatinib 0.007 | pictilisib 0.038 | crizotinib -0.03 | [1] 0.029 | duvelisib 0.073 | gandotinib -0.016 | tozasertib -0.013 | doramapimod -0.009 | bafetinib 0.028 | [2] 0.048 | nilotinib -0.043 | [3] 0.025 | dasatinib 0.029 | [4] -0.007 | [5] 0.044 | quisinostat -0.026 | tipifarnib 0.011 | [6] 0.003 | [7] 0.018 | [8] -0.04

RHOT2 (UniProt Q8IXI1)
inactive: lapatinib -0.045 | pictilisib -0.017 | crizotinib -0.039 | [1] -0.025 | duvelisib -0.001 | gandotinib -0.001 | tozasertib 0.006 | doramapimod 0.024 | bafetinib 0.033 | [2] 0.04 | nilotinib -0.023 | [3] -0.033 | dasatinib -0.027 | [4] 0.042 | [5] 0.002 | quisinostat -0.021 | tipifarnib -0.028 | [6] 0.026 | [7] 0.025 | [8] 0

RNF34 isoform 2 (UniProt Q969K3)
inactive: lapatinib 0.099 | pictilisib 0.228 | crizotinib -0.083 | [1] -0.02 | duvelisib -0.035 | gandotinib 0.042 | tozasertib -0.047 | doramapimod 0.122 | bafetinib 0.028 | [2] 0.088 | nilotinib 0.058 | [3] 0.053 | dasatinib -0.05 | [4] 0.254 | [5] 0.052 | quisinostat -0.01 | tipifarnib -0.193 | [6] -0.014 | [7] 0.246 | [8] -0.059

RIC8A (UniProt Q9NPQ8)
inactive: lapatinib 0.018 | pictilisib -0.021 | crizotinib -0.034 | [1] -0.004 | duvelisib -0.023 | gandotinib -0.076 | tozasertib 0.024 | doramapimod 0.041 | bafetinib 0.004 | [2] 0.029 | nilotinib 0.001 | [3] 0.003 | dasatinib -0.021 | [4] -0.012 | [5] 0.013 | quisinostat -0.012 | tipifarnib -0.023 | [6] 0.088 | [7] 0.02 | [8] -0.003

RPL19 (UniProt P84098)
inactive: lapatinib -0.022 | pictilisib -0.002 | crizotinib 0.028 | [1] 0.111 | duvelisib -0.005 | gandotinib -0.082 | tozasertib -0.038 | doramapimod 0.001 | bafetinib 0.018 | [2] -0.125 | nilotinib 0.032 | [3] -0.019 | dasatinib 0.026 | [4] -0.012 | [5] 0.011 | quisinostat 0.098 | tipifarnib 0.029 | [6] -0.04 | [7] -0.023 | [8] -0.027

RPL26L1 (UniProt Q9UNX3)
inactive: lapatinib -0.009 | pictilisib 0.008 | crizotinib 0.064 | [1] 0.18 | duvelisib -0.01 | gandotinib -0.104 | tozasertib 0.029 | doramapimod -0.046 | bafetinib 0.096 | [2] -0.144 | nilotinib 0.051 | [3] -0.04 | dasatinib 0.027 | [4] 0.067 | [5] 0.015 | quisinostat 0.105 | tipifarnib 0.056 | [6] -0.008 | [7] -0.016 | [8] 0.02

RPIA (UniProt P49247)
inactive: lapatinib -0.011 | pictilisib -0.023 | crizotinib -0.018 | [1] -0.188 | duvelisib 0.012 | gandotinib 0.069 | tozasertib -0.048 | doramapimod -0.001 | bafetinib -0.005 | [2] 0.06 | nilotinib 0.03 | [3] -0.024 | dasatinib -0.007 | [4] -0.008 | [5] -0.037 | quisinostat -0.024 | tipifarnib 0.047 | [6] 0.014 | [7] -0.012 | [8] 0.03

RNF7 (UniProt Q9UBF6)
inactive: lapatinib -0.007 | pictilisib -0.013 | crizotinib -0.039 | [1] -0.096 | duvelisib 0.1 | gandotinib 0.061 | tozasertib -0.177 | doramapimod 0.049 | bafetinib -0.016 | [2] 0.004 | nilotinib 0.125 | [3] 0.014 | dasatinib -0.088 | [4] 0.074 | [5] 0.052 | quisinostat 0.009 | tipifarnib 0.021 | [6] -0.025 | [7] -0.006 | [8] -0.001

RHOT1 isoform 3 (UniProt Q8IXI2)
inactive: lapatinib -0.011 | pictilisib 0.026 | crizotinib -0.029 | [1] -0.094 | duvelisib -0.006 | gandotinib -0.025 | tozasertib 0.035 | doramapimod 0.088 | bafetinib -0.129 | [2] 0.024 | nilotinib 0.01 | [3] -0.034 | dasatinib -0.049 | [4] -0.015 | [5] 0.07 | quisinostat -0.018 | tipifarnib -0.002 | [6] 0.058 | [7] -0.022 | [8] 0.046

RILP (UniProt Q96NA2)
inactive: lapatinib -0.005 | pictilisib -0.034 | crizotinib -0.004 | [1] -0.043 | duvelisib -0.02 | gandotinib 0 | tozasertib -0.018 | doramapimod 0.02 | bafetinib -0.023 | [2] -0.005 | nilotinib 0.023 | [3] -0.018 | dasatinib -0.015 | [4] 0.009 | [5] -0.018 | quisinostat 0.015 | tipifarnib 0.036 | [6] -0.017 | [7] -0.008 | [8] 0.031

RPL15 (UniProt P61313)
inactive: lapatinib 0.012 | pictilisib 0.006 | crizotinib -0.011 | [1] 0.055 | duvelisib 0.024 | gandotinib -0.036 | tozasertib -0.033 | doramapimod -0.011 | bafetinib 0.034 | [2] -0.053 | nilotinib 0 | [3] 0.009 | dasatinib 0.013 | [4] -0.037 | [5] 0.031 | quisinostat -0.011 | tipifarnib 0.002 | [6] -0.012 | [7] -0.02 | [8] 0.015

2 records picked at random from the list so far:
RILP (UniProt Q96NA2)
inactive: lapatinib -0.005 | pictilisib -0.034 | crizotinib -0.004 | [1] -0.043 | duvelisib -0.02 | gandotinib 0 | tozasertib -0.018 | doramapimod 0.02 | bafetinib -0.023 | [2] -0.005 | nilotinib 0.023 | [3] -0.018 | dasatinib -0.015 | [4] 0.009 | [5] -0.018 | quisinostat 0.015 | tipifarnib 0.036 | [6] -0.017 | [7] -0.008 | [8] 0.031

RPL15 (UniProt P61313)
inactive: lapatinib 0.012 | pictilisib 0.006 | crizotinib -0.011 | [1] 0.055 | duvelisib 0.024 | gandotinib -0.036 | tozasertib -0.033 | doramapimod -0.011 | bafetinib 0.034 | [2] -0.053 | nilotinib 0 | [3] 0.009 | dasatinib 0.013 | [4] -0.037 | [5] 0.031 | quisinostat -0.011 | tipifarnib 0.002 | [6] -0.012 | [7] -0.02 | [8] 0.015

Next results

RIPK1 (UniProt Q13546)
active: gandotinib 0.256 | tozasertib 0.326 | [2] 0.755 | [4] 0.248 | [5] 0.723
inactive: lapatinib 0.006 | pictilisib -0.002 | crizotinib 0.061 | [1] -0.026 | duvelisib -0.05 | doramapimod 0.038 | bafetinib 0.007 | nilotinib -0.053 | [3] -0.014 | dasatinib 0.087 | quisinostat -0.074 | tipifarnib -0.064 | [6] 0.015 | [7] 0.01 | [8] -0.047

RPL13 (UniProt P26373)
inactive: lapatinib -0.01 | pictilisib 0.013 | crizotinib 0.036 | [1] -0.051 | duvelisib 0.026 | gandotinib 0 | tozasertib 0.022 | doramapimod -0.026 | bafetinib -0.025 | [2] 0.051 | nilotinib -0.012 | [3] 0.002 | dasatinib 0.023 | [4] -0.027 | [5] -0.013 | quisinostat 0.117 | tipifarnib 0.01 | [6] -0.015 | [7] -0.021 | [8] -0.01

RNASEH2C (UniProt Q8TDP1)
inactive: lapatinib 0.008 | pictilisib 0.008 | crizotinib -0.02 | [1] -0.181 | duvelisib 0.002 | gandotinib 0.017 | tozasertib 0.023 | doramapimod 0.011 | bafetinib -0.024 | [2] 0.075 | nilotinib 0.006 | [3] -0.045 | dasatinib -0.034 | [4] -0.03 | [5] 0 | quisinostat -0.036 | tipifarnib -0.002 | [6] 0.005 | [7] 0.025 | [8] 0.027

RHOXF2 (UniProt Q9BQY4)
inactive: lapatinib 0.045 | pictilisib 0.05 | crizotinib 0.007 | [1] -0.029 | duvelisib 0.013 | gandotinib 0 | tozasertib 0.011 | doramapimod -0.081 | bafetinib -0.028 | [2] 0.091 | nilotinib -0.077 | [3] 0.057 | dasatinib 0.027 | [4] 0.043 | [5] -0.028 | quisinostat 0.033 | tipifarnib 0 | [6] 0.039 | [7] -0.014 | [8] -0.038
